According to patent US10730840B2, “Substituted tetrahydroisoquinoline ethylbenzamide anti-cancer agents” (Florida A&M University, priority 2017, dated 2020):
Like-named read-outs stand apart in the source and are kept apart here.

System: Ishikawa (endometrial) cancer cell line
Assay: CellTiter-Glo antiproliferative activity, Ishikawa cell line
Format: cell-based
Conditions: Homo sapiens, in the presence of 10 nM estradiol
Description: Numerous substituted THIQs were systematically synthesized employing molecular design and structure activity relationship studies (Suresh et al., (2014) Lett. Drug Design & Discov. 11: 428-436; Gangapuram et al., (2014) J. Cancer Sci. Ther. 6: 161-169). The compounds' cytotoxic effects on MCF-7 (estrogen receptor positive breast cancer) cell lines, MDA-MB-231 (estrogen receptor negative breast cancer) cell lines and Ishikawa cell lines using CellTiter-Glo (CTG) luminescent cell viability essay were studied. The tests were done on different concentrations of the compounds ranging from 0.01 to 100,000 nM on 5000 MCF-7 cells/well, on 5000 MDA-MB-231 cells/well and on 5000 Ishikawa cells/well. Drug exposed cells were incubated at 37° C. for three days followed by CTG assay. Then IC50 values were generated from Graph Pad Prism 4. […]
The antiproliferative activities of substituted tetrahydroisoquinolines 2a-2m, 3a-3l and 4a-4f were evaluated according to the procedure reported previously (Crouch et al., (1993) J. Immunol. Methods 160: 81-88).
Human MCF-7 and MDA-MB-231 breast cancer cell lines were purchased from the NCI. The human Ishikawa endometrial cancer cell line was purchased from Sigma Aldrich. […]
The amount of ATP is determined using a system based on luciferase and D-luciferin resulting in light generation.

IC50 (72 h exposure, read-out: IC50 against Ishikawa cell line): 7.87 µg/mL
IC50 (Table 1, 72 h exposure, read-out: IC50 Ishikawa): 7.87 µg/mL
Structure (SMILES): CC/C(=C(\c1ccccc1)c1ccc(OCCN(C)C)cc1)c1ccccc1 [Tamoxifen, reference compound]
